The nature of this data set: peptide synthesis.

In the case of “(2S)-2-(2-{2-[(2R)-6-Azido-2-({[(9H-fluoren-9-yl)methoxy]carbonyl}amino)hexanamido]acetamido}acetamido)-3-phenylpropanoic Acid”, the step yield (coupling step) was 76%.

With COT-GGG-P3 (Gly-NHCH2O-Dxd) [LP3], the “purity (crude or final not stated)” value is 99%. For the same substance, the conjugation yield (conjugation step, TFA salt) is given as 36%.

As to DIBAC-GGF-P3 (Gly-NHCH2O-Dxd), the “purity (crude or final not stated)” value is 99%.

The record behind these values is patent US12605459B2 (priority 2020, dated 2026).
